The target in this assay is EGFP-ERK. The experiment in a line: FRET or BRET; time-lapse tri-molecular FRET microscopy in transiently transfected live cells (4T1 by text and methods, COS7 by the legend); energy transfer from ECFP to EGFP to DsRed; ceritinib 30 µM; rise of the signal in less than 2 h. In general terms: BRET reads energy transfer from a luciferase to a nearby fluorophore.

No constants are given. Whether binding was seen depends on the method and setting. In cells and extracts the contact can be indirect. A result given as binding can be weak or reduced; the word gives no strength.

B1: DsRed-WWOX (protein, UniProt Q9NZC7 1-414)
chain: MAALRYAGLDDTDSEDELPPGWEERTTKDGWVYYANHTEEKTQWEHPKTGKRKRVAGDLPYGWEQETDENGQVFFVDHINKRTTYLDPRLAFTVDDNPTKPTTRQRYDGSTTAMEILQGRDFTGKVVVVTGANSGIGFETAKSFALHGAHVILACRNMARASEAVSRILEEWHKAKVEAMTLDLALLRSVQHFAEAFKAKNVPLHVLVCNAATFALPWSLTKDGLETTFQVNHLGHFYLVQLLQDVLCRSAPARVIVVSSESHRFTDINDSLGKLDFSRLSPTKNDYWAMLAYNRSKLCNILFSNELHRRLSPRGVTSNAVHPGNMMYSNIHRSWWVYTLLFTLARPFTKSMQQGAATTVYCAAVPELEGLGGMYFNNCCRCMPSPEAQSEETARTLWALSERLIQERLGSQSG
For the molecule B1, the binding result is “binds”.

The record behind these values is paper PMC6895976.
